Experimental data taken from article PMC3248559.

Target: T1, MoMagB (Magnaporthe oryzae) (UniProt O13315)
T1 sequence: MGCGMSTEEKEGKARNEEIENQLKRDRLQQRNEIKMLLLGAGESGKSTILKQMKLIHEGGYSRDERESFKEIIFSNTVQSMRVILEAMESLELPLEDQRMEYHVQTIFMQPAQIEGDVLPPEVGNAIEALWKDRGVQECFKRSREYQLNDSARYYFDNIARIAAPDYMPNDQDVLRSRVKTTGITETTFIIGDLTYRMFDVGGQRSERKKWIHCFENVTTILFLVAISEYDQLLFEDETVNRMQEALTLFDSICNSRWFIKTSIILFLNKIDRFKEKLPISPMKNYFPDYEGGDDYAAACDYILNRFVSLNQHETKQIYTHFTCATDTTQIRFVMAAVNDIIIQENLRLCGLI
Test: two-hybrid

Substance	binding
MoRgs8 RGS domain (from UniProt G4N2V0) (domain or fragment)	binds
MoRgs2 (from UniProt G4NAT9)	binds

No constants are given. Whether binding was seen depends on the method and setting. Binding calls can cover weak binding; strength is not graded here.
